Reference: publication doi:10.1101/2023.12.07.570558 (bioRxiv, 2023)
No constants are given. Whether binding was seen depends on the method and setting. In cells and extracts the contact can be indirect. A yes stands for co-enrichment or nearness to the bait. Other partners may have been found.

Amino acid sequences for entries named in this document (tags omitted).
UniProt Q96EB6: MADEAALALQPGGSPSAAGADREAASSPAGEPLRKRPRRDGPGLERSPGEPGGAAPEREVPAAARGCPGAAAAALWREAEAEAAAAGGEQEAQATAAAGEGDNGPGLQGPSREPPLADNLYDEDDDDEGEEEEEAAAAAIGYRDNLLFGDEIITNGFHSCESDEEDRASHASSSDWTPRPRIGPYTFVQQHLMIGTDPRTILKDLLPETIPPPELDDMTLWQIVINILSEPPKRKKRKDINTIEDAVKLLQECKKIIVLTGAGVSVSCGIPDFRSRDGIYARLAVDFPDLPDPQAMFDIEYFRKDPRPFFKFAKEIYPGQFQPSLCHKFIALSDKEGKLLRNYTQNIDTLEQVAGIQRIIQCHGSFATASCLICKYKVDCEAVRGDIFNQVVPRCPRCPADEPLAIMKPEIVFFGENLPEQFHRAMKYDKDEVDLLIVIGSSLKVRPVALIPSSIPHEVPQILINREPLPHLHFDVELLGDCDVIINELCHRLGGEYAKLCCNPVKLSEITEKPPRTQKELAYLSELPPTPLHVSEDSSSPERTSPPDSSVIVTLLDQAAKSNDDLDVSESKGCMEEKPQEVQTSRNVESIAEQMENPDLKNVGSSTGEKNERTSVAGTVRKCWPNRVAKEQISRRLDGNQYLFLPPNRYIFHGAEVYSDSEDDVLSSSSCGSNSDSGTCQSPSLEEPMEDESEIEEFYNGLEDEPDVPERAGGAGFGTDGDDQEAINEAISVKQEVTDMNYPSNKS

Biological target: HA-tagged SIRT1 (stably expressed in MEFs) (human) (UniProt Q96EB6)
Assay: affinity purification with mass spectrometry

B1: TUB like protein 3 (TULP3), endogenous in MEFs (protein, UniProt O88413 1-460)
chain: MEAARCAPGPRGDSAFDDETLRLRQLKLDNQRALLEKKQRKKRLEPLMVQPNPEARLRRLKPRGSEEHTPLVDPQMPRSDVILHGIDGPAAFLKPEAQDLESKPQVLSVGSPAPEEGTEGSADGESPEETAPKPDLQEILQKHGILSSVNYDEEPDKEEDEGGNLSSPSARSEESAAASQKAASETGASGVTAQQGDAQLGEVENLEDFAYSPAPRGVTVKCKVTRDKKGMDRGLFPTYYMHLEREENRKIFLLAGRKRKKSKTSNYLVSTDPTDLSREGESYIGKLRSNLMGTKFTVYDHGVNPVKAQGLVEKAHTRQELAAICYETNVLGFKGPRKMSVIIPGMNMNHERIPFRPRNEHESLLSKWQNKSMENLIELHNKAPVWNDDTQSYVLNFHGRVTQASVKNFQIVHGNDPDYIVMQFGRVADDVFTLDYNYPLCALQAFAIGLSSFDSKLACE
For B1, the binding was “binds”.
